Measurements as given in publication PMC10192437.
No constants are given. Whether binding was seen depends on the method and setting. Binding seen in cells or lysates may run through a third protein. Here binding means that the protein was enriched with, or labelled near, the bait; the list need not be complete.

Biological target: T1, mesoderm-specific transcript (MEST) (UniProt Q5EB52)
T1 sequence: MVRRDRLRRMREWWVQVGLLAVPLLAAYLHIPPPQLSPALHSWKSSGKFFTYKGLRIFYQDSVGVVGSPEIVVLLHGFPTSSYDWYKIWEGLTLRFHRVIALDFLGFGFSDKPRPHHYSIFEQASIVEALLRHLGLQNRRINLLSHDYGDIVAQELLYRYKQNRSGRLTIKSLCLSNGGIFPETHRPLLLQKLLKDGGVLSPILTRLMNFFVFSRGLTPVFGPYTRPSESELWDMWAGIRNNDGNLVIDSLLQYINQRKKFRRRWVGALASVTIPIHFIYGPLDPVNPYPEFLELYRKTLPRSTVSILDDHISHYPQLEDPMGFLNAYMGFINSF
Assay: affinity purification with mass spectrometry; immunoprecipitation coupled with liquid chromatography tandem mass spectrometry (IP-MS) to identify the interacting partners of MEST

B1: purine rich element binding protein A (PURA) (protein, UniProt Q00577 1-322)
chain: MADRDSGSEQGGAALGSGGSLGHPGSGSGSGGGGGGGGGGGGSGGGGGGAPGGLQHETQELASKRVDIQNKRFYLDVKQNAKGRFLKIAEVGAGGNKSRLTLSMSVAVEFRDYLGDFIEHYAQLGPSQPPDLAQAQDEPRRALKSEFLVRENRKYYMDLKENQRGRFLRIRQTVNRGPGLGSTQGQTIALPAQGLIEFRDALAKLIDDYGVEEEPAELPEGTSLTVDNKRFFFDVGSNKYGVFMRVSEVKPTYRNSITVPYKVWAKFGHTFCKYSEEMKKIQEKQREKRAACEQLHQQQQQQQEETAAATLLLQGEEEGEED
For B1, the binding was “binds”.
